# In the supplement of paper PMC8728848:
# The list shows a part of the results.
# B1: LlpA (Burkholderia cenocepacia) (protein)
# chain: MGSSHHHHHHSSGLVPRGSHKILGSNETLSAGNVVYSDNGQYHLAMQTDGNLVVYGPTGAVWQSQTSGSGGNRAVMQGDGNLVIYRADNTAAWSSKTAHPGAFLAVQDDGNVVIYWPRPAWASNTSDPATQQSAESKYLASGSTMSAGQTVTVAQYMLVFQADGNLVLYKNGGNPIWSTGTQGKGATYAVMQSDGNFVIYAGSTALWSTKTNGANGAQLVLQSDGNLVIYAPTAAWSTKFGLVTAPTSTSTSNNGPGSGICVGVCPPHPLNGNPFSPVGVGTTGLGFPTPGYPGAAF
# Key:
# Experiment in all cases: glycan array binding signal (z-score within array); higher = stronger binding
# Settings in all cases: glycan notation: IUPAC condensed, linker removed
# [1] = biological target: Gal(b1-4)GlcNAc(b1-2)Man(a1-6)[GlcNAc(b1-2)Man(a1-3)]Man(b1-4)GlcNAc(b1-4)GlcNAc
# Outline: (§1)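 Glycan array data came from 3228 arrays in the Consortium for Functional Glycomics database, and only arrays with an available protein sequence were kept. Glycan names were put into IUPAC-condensed notation, and columns mapping to the same glycan were averaged. The binding signal is a within-array Z-score, averaged across arrays of one protein sequence run at different concentrations or buffers and across linkers. A negative Z-score can be read as non-binding.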
# [2] = biological target: Gal(b1-4)GlcNAc(b1-2)Man(a1-6)[Man(a1-3)]Man(b1-4)GlcNAc(b1-4)GlcNAc
# Outline: as §1
# [3] = biological target: Gal(b1-4)GlcNAc(b1-2)[Gal(b1-4)GlcNAc(b1-4)]Man(a1-3)[Gal(b1-4)GlcNAc(b1-2)Man(a1-6)]Man(b1-4)GlcNAc(b1-4)GlcNAc
# Outline: as §1
# [4] = biological target: Gal(b1-4)GlcNAc(b1-2)[Gal(b1-4)GlcNAc(b1-4)]Man(a1-3)[Gal(b1-4)GlcNAc(b1-2)[Gal(b1-4)GlcNAc(b1-6)]Man(a1-6)]Man(b1-4)GlcNAc(b1-4)GlcNAc
# Outline: as §1
# [5] = biological target: Gal(b1-4)GlcNAc(b1-2)[Gal(b1-4)GlcNAc(b1-4)]Man(a1-3)[GlcNAc(b1-4)][Gal(b1-4)GlcNAc(b1-2)Man(a1-6)]Man(b1-4)GlcNAc(b1-4)GlcNAc
# Outline: as §1
# [6] = biological target: Gal(b1-4)GlcNAc(b1-2)[Gal(b1-4)GlcNAc(b1-4)]Man(a1-3)[GlcNAc(b1-4)][Gal(b1-4)GlcNAc(b1-2)[Gal(b1-4)GlcNAc(b1-6)]Man(a1-6)]Man(b1-4)GlcNAc(b1-4)GlcNAc
# Outline: as §1
# [7] = biological target: Gal(b1-4)GlcNAc(b1-2)[Gal(b1-4)GlcNAc(b1-6)]Man(a1-6)[Gal(b1-4)GlcNAc(b1-2)Man(a1-3)]Man(b1-4)GlcNAc(b1-4)GlcNAc
# Outline: as §1
# [8] = biological target: Gal(b1-4)GlcNAc(b1-2)[Gal(b1-4)GlcNAc(b1-6)]Man(a1-6)[Gal(b1-4)GlcNAc(b1-2)Man(a1-3)]Man(b1-4)GlcNAc(b1-4)[Fuc(a1-6)]GlcNAc
# Outline: as §1
# [9] = biological target: Gal(b1-4)GlcNAc(b1-2)[Gal(b1-4)GlcNAc(b1-6)]Man(a1-6)[GlcNAc(b1-4)][Gal(b1-4)GlcNAc(b1-2)Man(a1-3)]Man(b1-4)GlcNAc(b1-4)GlcNAc
# Outline: as §1
# [10] = biological target: Gal(b1-4)GlcNAc(b1-2)[Gal(b1-4)GlcNAc(b1-6)]Man(a1-6)[GlcNAc(b1-4)][Gal(b1-4)GlcNAc(b1-2)[Gal(b1-4)GlcNAc(b1-4)]Man(a1-3)]Man(b1-4)GlcNAc(b1-4)[Fuc(a1-6)]GlcNAc
# Outline: as §1
# [11] = biological target: Gal(b1-4)GlcNAc(b1-3)Gal(b1-3)GalNAc
# Outline: as §1
# [12] = biological target: Gal(b1-4)GlcNAc(b1-3)Gal(b1-3)GlcNAc
# Outline: as §1
# [13] = biological target: Gal(b1-4)GlcNAc(b1-3)Gal(b1-4)Glc
# Outline: as §1
# [14] = biological target: Gal(b1-4)GlcNAc(b1-3)Gal(b1-4)GlcNAc
# Outline: as §1
# [15] = biological target: Gal(b1-4)GlcNAc(b1-3)Gal(b1-4)GlcNAc(b1-2)Man(a1-3)[Gal(b1-4)GlcNAc(b1-3)Gal(b1-4)GlcNAc(b1-2)Man(a1-6)]Man(b1-4)GlcNAc(b1-4)GlcNAc
# Outline: as §1
# [16] = biological target: Gal(b1-4)GlcNAc(b1-3)Gal(b1-4)GlcNAc(b1-2)Man(a1-3)[Gal(b1-4)GlcNAc(b1-3)Gal(b1-4)GlcNAc(b1-2)Man(a1-6)]Man(b1-4)GlcNAc(b1-4)[Fuc(a1-6)]GlcNAc
# Outline: as §1
# [17] = biological target: Gal(b1-4)GlcNAc(b1-3)Gal(b1-4)GlcNAc(b1-2)[Gal(b1-4)GlcNAc(b1-3)Gal(b1-4)GlcNAc(b1-6)]Man(a1-6)[Gal(b1-4)GlcNAc(b1-3)Gal(b1-4)GlcNAc(b1-2)Man(a1-3)]Man(b1-4)GlcNAc(b1-4)GlcNAc
# Outline: as §1
# [18] = biological target: Gal(b1-4)GlcNAc(b1-3)Gal(b1-4)GlcNAc(b1-2)[Gal(b1-4)GlcNAc(b1-3)Gal(b1-4)GlcNAc(b1-6)]Man(a1-6)[Gal(b1-4)GlcNAc(b1-3)Gal(b1-4)GlcNAc(b1-2)Man(a1-3)]Man(b1-4)GlcNAc(b1-4)[Fuc(a1-6)]GlcNAc
# Outline: as §1
binder,measurement,setting,value
B1,glycan array binding signal (z-score),[1],-0.327
same,glycan array binding signal (z-score),[2],0.084
same,glycan array binding signal (z-score),[3],-0.37
same,glycan array binding signal (z-score),[4],-0.85
same,glycan array binding signal (z-score),[5],-0.887
same,glycan array binding signal (z-score),[6],0.349
same,glycan array binding signal (z-score),[7],-0.242
same,glycan array binding signal (z-score),[8],0.096
same,glycan array binding signal (z-score),[9],-0.912
same,glycan array binding signal (z-score),[10],-0.834
same,glycan array binding signal (z-score),[11],-0.547
same,glycan array binding signal (z-score),[12],-0.242
same,glycan array binding signal (z-score),[13],-0.506
same,glycan array binding signal (z-score),[14],-0.792
same,glycan array binding signal (z-score),[15],1.04
same,glycan array binding signal (z-score),[16],2.46
same,glycan array binding signal (z-score),[17],0.339
same,glycan array binding signal (z-score),[18],1.91

# A different layout for some results above:
binder	measurement	setting	value
B1	glycan array binding signal (z-score)	[14]	-0.792
same	glycan array binding signal (z-score)	[15]	1.04
